Experimental data from article PMC5341041.
These are yes or no findings as the source states them, for the method shown. In cells and extracts the contact can be indirect. Here binding means that the protein was enriched with, or labelled near, the bait; the list need not be complete.

Amino acid sequences for entries named in this document (tags omitted).
UniProt P53115: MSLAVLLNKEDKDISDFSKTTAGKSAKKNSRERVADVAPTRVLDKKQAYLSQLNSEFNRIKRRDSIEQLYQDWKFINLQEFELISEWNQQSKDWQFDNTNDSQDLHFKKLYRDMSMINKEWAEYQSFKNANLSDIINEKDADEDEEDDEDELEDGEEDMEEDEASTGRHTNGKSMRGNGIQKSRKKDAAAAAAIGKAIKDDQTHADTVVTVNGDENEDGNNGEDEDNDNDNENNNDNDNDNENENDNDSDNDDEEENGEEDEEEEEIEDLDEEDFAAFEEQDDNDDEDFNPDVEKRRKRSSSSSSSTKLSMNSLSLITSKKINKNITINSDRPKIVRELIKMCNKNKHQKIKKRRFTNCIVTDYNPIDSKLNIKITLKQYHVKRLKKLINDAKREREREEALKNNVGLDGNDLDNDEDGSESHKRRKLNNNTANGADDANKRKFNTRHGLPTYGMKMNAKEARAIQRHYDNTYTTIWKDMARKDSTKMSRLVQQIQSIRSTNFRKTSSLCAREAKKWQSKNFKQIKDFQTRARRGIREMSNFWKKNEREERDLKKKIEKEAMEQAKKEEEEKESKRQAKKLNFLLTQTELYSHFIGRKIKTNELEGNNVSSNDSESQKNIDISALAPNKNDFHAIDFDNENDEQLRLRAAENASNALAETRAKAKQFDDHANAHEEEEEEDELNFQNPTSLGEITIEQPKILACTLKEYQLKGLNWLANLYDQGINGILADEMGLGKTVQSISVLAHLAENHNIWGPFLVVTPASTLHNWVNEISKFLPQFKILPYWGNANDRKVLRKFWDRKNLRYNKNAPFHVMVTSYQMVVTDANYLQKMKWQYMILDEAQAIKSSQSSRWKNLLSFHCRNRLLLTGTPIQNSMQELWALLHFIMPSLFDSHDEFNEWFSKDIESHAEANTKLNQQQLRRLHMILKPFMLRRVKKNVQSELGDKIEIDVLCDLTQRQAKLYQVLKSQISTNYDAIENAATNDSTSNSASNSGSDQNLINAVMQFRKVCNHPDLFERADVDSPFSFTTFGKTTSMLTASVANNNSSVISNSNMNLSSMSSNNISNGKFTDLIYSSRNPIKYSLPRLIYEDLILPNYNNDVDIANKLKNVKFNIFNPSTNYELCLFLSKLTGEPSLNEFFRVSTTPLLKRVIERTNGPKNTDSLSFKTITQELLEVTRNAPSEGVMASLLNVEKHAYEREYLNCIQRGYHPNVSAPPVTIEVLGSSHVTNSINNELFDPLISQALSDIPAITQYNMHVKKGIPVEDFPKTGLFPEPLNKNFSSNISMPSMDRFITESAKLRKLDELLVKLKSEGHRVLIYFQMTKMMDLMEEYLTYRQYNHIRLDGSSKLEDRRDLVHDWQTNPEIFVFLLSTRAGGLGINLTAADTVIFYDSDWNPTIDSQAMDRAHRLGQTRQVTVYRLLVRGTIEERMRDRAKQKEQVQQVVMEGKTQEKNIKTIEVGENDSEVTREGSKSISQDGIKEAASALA
UniProt Q12464: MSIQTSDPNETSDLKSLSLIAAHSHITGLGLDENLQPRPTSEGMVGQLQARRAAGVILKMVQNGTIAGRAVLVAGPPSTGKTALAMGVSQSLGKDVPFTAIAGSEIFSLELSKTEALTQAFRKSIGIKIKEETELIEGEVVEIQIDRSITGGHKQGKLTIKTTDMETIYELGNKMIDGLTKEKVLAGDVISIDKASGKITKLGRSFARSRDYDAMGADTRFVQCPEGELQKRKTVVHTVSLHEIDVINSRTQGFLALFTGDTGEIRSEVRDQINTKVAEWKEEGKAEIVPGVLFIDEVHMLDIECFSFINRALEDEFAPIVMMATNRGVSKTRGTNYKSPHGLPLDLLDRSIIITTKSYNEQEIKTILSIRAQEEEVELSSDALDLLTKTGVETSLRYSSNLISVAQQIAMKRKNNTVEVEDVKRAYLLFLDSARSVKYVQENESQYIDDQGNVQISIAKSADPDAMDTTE
UniProt Q03940: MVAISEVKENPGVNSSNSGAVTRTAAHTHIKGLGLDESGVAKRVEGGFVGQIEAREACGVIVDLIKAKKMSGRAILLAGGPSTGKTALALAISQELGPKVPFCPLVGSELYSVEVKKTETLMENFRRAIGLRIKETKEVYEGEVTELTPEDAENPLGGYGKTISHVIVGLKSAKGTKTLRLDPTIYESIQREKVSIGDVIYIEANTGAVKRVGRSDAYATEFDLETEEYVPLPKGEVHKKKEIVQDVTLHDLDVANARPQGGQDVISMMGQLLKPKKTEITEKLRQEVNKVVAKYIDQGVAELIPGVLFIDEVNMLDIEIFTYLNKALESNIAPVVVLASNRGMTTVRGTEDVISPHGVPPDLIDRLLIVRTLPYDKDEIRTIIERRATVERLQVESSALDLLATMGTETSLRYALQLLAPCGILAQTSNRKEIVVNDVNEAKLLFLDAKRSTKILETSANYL

Columns and labels:
Assay in all cases: affinity purification with mass spectrometry; TAP purification of TAP-tagged INO80 subunits from wild-type S. cerevisiae grown in YPD; MudPIT, spectral counts, dNSAF
[1] = target: T1, Arp8 (S. cerevisiae) (UniProt Q12386)
T1 sequence: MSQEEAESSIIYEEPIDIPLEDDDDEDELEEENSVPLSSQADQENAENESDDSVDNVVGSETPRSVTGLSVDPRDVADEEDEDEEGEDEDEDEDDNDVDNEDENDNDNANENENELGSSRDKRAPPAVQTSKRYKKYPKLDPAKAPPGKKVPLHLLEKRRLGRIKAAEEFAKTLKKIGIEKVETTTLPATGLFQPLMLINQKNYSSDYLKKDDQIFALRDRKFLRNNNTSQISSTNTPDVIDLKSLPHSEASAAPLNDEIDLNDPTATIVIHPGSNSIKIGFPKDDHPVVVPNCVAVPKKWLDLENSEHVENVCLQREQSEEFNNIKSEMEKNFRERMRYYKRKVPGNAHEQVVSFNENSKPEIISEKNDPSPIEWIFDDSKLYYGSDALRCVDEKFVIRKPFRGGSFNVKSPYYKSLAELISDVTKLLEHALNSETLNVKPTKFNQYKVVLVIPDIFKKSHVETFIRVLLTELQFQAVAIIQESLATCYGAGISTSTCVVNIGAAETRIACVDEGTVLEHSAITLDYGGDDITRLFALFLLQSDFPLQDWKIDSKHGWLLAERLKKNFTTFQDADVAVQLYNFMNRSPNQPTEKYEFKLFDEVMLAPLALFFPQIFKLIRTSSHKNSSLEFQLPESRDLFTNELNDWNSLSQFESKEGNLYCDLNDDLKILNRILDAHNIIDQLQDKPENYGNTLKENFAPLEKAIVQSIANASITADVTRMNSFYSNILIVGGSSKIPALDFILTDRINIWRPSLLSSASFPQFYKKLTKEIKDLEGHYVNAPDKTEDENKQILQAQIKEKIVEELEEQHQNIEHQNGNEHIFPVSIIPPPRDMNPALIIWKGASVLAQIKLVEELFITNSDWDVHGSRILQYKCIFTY

[2] = target: T2, Ies1 (S. cerevisiae) (UniProt P43579)
T2 sequence: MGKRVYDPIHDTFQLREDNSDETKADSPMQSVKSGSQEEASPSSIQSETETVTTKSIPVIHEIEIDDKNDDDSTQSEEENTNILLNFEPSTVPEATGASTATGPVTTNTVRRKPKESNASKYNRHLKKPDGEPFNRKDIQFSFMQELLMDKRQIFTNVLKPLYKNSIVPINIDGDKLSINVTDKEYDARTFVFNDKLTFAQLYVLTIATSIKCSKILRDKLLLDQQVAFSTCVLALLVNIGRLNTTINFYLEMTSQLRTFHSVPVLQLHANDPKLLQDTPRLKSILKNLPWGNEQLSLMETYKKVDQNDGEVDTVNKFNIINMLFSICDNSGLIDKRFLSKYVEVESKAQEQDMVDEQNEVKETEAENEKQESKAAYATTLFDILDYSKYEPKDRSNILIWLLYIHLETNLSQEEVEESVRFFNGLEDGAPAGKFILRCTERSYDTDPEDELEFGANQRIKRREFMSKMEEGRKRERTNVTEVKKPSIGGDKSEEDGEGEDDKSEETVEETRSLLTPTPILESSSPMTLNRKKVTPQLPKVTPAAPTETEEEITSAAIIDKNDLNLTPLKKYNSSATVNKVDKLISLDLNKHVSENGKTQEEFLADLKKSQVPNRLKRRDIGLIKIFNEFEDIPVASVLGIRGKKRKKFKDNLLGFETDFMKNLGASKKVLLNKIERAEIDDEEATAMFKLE

[3] = target: T3, Ies2 (S. cerevisiae) (UniProt P40154)
T3 sequence: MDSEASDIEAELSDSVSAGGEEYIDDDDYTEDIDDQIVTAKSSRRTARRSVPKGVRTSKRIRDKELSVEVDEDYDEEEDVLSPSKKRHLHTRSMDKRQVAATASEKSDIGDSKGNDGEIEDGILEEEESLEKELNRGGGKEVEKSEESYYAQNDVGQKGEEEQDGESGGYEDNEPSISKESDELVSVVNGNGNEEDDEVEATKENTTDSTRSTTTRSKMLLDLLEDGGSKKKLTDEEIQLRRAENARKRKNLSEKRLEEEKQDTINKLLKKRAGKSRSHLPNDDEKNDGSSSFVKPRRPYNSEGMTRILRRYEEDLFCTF

[4] = target: T4, Ies3 (S. cerevisiae) (UniProt Q12345)
T4 sequence: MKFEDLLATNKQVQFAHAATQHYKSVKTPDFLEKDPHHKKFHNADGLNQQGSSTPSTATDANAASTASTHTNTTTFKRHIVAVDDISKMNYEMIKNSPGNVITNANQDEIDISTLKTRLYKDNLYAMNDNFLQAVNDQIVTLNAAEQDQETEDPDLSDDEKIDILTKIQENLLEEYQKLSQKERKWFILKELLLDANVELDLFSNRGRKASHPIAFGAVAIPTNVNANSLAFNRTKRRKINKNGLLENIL

[5] = target: T5, Ies5 (S. cerevisiae) (UniProt P40060)
T5 sequence: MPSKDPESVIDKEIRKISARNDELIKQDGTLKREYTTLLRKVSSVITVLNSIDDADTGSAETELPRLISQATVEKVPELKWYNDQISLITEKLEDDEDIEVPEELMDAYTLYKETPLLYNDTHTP

[6] = target: T6, Nhp10 (S. cerevisiae) (UniProt Q03435)
T6 sequence: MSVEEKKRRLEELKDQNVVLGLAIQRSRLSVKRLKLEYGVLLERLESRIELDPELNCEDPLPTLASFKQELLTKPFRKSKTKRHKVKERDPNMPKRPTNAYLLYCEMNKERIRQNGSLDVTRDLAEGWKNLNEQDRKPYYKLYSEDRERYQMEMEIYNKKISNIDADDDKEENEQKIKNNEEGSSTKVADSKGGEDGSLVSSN

[7] = target: T7, Ies6 (S. cerevisiae) (UniProt P32617)
T7 sequence: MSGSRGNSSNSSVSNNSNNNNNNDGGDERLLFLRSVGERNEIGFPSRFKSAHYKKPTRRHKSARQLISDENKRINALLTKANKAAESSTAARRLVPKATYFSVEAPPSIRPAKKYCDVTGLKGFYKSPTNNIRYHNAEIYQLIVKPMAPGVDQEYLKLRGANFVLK

[8] = target: Ino80 (S. cerevisiae) (UniProt P53115)

Measured: binding

Rvb2 (from UniProt Q12464 1-471)
binds: [1] | [2] | [3] | [4] | [5] | [6]

Rvb1 (from UniProt Q03940 1-463)
binds: [1] | [2] | [3] | [4] | [5] | [6]

B1: Ies1 (protein, UniProt P43579 1-692)
chain: MGKRVYDPIHDTFQLREDNSDETKADSPMQSVKSGSQEEASPSSIQSETETVTTKSIPVIHEIEIDDKNDDDSTQSEEENTNILLNFEPSTVPEATGASTATGPVTTNTVRRKPKESNASKYNRHLKKPDGEPFNRKDIQFSFMQELLMDKRQIFTNVLKPLYKNSIVPINIDGDKLSINVTDKEYDARTFVFNDKLTFAQLYVLTIATSIKCSKILRDKLLLDQQVAFSTCVLALLVNIGRLNTTINFYLEMTSQLRTFHSVPVLQLHANDPKLLQDTPRLKSILKNLPWGNEQLSLMETYKKVDQNDGEVDTVNKFNIINMLFSICDNSGLIDKRFLSKYVEVESKAQEQDMVDEQNEVKETEAENEKQESKAAYATTLFDILDYSKYEPKDRSNILIWLLYIHLETNLSQEEVEESVRFFNGLEDGAPAGKFILRCTERSYDTDPEDELEFGANQRIKRREFMSKMEEGRKRERTNVTEVKKPSIGGDKSEEDGEGEDDKSEETVEETRSLLTPTPILESSSPMTLNRKKVTPQLPKVTPAAPTETEEEITSAAIIDKNDLNLTPLKKYNSSATVNKVDKLISLDLNKHVSENGKTQEEFLADLKKSQVPNRLKRRDIGLIKIFNEFEDIPVASVLGIRGKKRKKFKDNLLGFETDFMKNLGASKKVLLNKIERAEIDDEEATAMFKLE
binds: [1] | [3] | [7] | [8]

B2: Ies5 (protein, UniProt P40060 1-125)
chain: MPSKDPESVIDKEIRKISARNDELIKQDGTLKREYTTLLRKVSSVITVLNSIDDADTGSAETELPRLISQATVEKVPELKWYNDQISLITEKLEDDEDIEVPEELMDAYTLYKETPLLYNDTHTP
binds: [1] | [3] | [4] | [7] | [8] | [6]

B3: Ies2 (protein, UniProt P40154 1-320)
chain: MDSEASDIEAELSDSVSAGGEEYIDDDDYTEDIDDQIVTAKSSRRTARRSVPKGVRTSKRIRDKELSVEVDEDYDEEEDVLSPSKKRHLHTRSMDKRQVAATASEKSDIGDSKGNDGEIEDGILEEEESLEKELNRGGGKEVEKSEESYYAQNDVGQKGEEEQDGESGGYEDNEPSISKESDELVSVVNGNGNEEDDEVEATKENTTDSTRSTTTRSKMLLDLLEDGGSKKKLTDEEIQLRRAENARKRKNLSEKRLEEEKQDTINKLLKKRAGKSRSHLPNDDEKNDGSSSFVKPRRPYNSEGMTRILRRYEEDLFCTF
binds: [1] | [2] | [4] | [5] | [7] | [6]

B4: Fba1 (protein, UniProt P14540 1-359)
chain: MGVEQILKRKTGVIVGEDVHNLFTYAKEHKFAIPAINVTSSSTAVAALEAARDSKSPIILQTSNGGAAYFAGKGISNEGQNASIKGAIAAAHYIRSIAPAYGIPVVLHSDHCAKKLLPWFDGMLEADEAYFKEHGEPLFSSHMLDLSEETDEENISTCVKYFKRMAAMDQWLEMEIGITGGEEDGVNNENADKEDLYTKPEQVYNVYKALHPISPNFSIAAAFGNCHGLYAGDIALRPEILAEHQKYTREQVGCKEEKPLFLVFHGGSGSTVQEFHTGIDNGVVKVNLDTDCQYAYLTGIRDYVLNKKDYIMSPVGNPEGPEKPNKKFFDPRVWVREGEKTMGAKITKSLETFRTTNTL
binds: [8]

B5: Eno2 (protein, UniProt P00925 1-437)
chain: MAVSKVYARSVYDSRGNPTVEVELTTEKGVFRSIVPSGASTGVHEALEMRDEDKSKWMGKGVMNAVNNVNNVIAAAFVKANLDVKDQKAVDDFLLSLDGTANKSKLGANAILGVSMAAARAAAAEKNVPLYQHLADLSKSKTSPYVLPVPFLNVLNGGSHAGGALALQEFMIAPTGAKTFAEAMRIGSEVYHNLKSLTKKRYGASAGNVGDEGGVAPNIQTAEEALDLIVDAIKAAGHDGKVKIGLDCASSEFFKDGKYDLDFKNPESDKSKWLTGVELADMYHSLMKRYPIVSIEDPFAEDDWEAWSHFFKTAGIQIVADDLTVTNPARIATAIEKKAADALLLKVNQIGTLSESIKAAQDSFAANWGVMVSHRSGETEDTFIADLVVGLRTGQIKTGAPARSERLAKLNQLLRIEEELGDKAVYAGENFHHGDKL
binds: [8]
